The target in this assay is soluble IL-4Rα (human) (UniProt P24394). Kind of assay: condition: 500 nM (top IL-4R analyte concentration per paragraph 167; not printed on the sheet); SPR (Biacore 3000, CM5 chip, 25 C): complex captured via protein A, IL-4R as analyte. For orientation: Surface plasmon resonance follows binding to a sensor surface in real time, without labels.

By UniProt entry, the sequences of proteins in these tests, tags left out. Residues count along the entry.
UniProt P24394, residues 26-232: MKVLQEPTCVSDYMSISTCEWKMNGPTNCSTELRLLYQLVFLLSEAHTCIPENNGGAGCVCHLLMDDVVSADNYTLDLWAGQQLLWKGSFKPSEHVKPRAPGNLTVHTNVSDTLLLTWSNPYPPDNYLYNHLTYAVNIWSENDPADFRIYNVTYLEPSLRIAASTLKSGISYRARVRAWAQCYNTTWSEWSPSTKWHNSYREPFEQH

These are yes or no findings as the source states them, for the method shown.

B1: Candidate-5 (TRAP-2) (other)
heavy chain with C-terminal TSLP TRAP 2 (palivizumab-YTE heavy chain, first linker, TSLP-TRAP): QVTLRESGPALVKPTQTLTLTCTFSGFSLSTSGMSVGWIRQPPGKALEWLADIWWDDKKDYNPSLKSRLTISKDTSANQVVLKVTNMDPADTATYYCARSMITNWYFDVWGAGTTVTVSSASTKGPSVFPLAPCSRSTSESTAALGCLVKDYFPEPVTVSWNSGALTSGVHTFPAVLQSSGLYSLSSVVTVPSSSLGTKTYTCNVDHKPSNTKVDKRVESKYGPPCPPCPAPEFLGGPSVFLFPPKPKDTLYITREPEVTCVVVDVSQEDPEVQFNWYVDGVEVHNAKTKPREEQFNSTYRVVSVLTVLHQDWLNGKEYKCKVSNKGLPSSIEKTISKAKGQPREPQVYTLPPSQEEMTKNQVSLTCLVKGFYPSDIAVEWESNGQPENNYKTTPPVLDSDGSFFLYSRLTVDKSRWQEGNVFSCSVMHEALHNHYTQKSLSLSLGGGGGSGGGGSGGGGSGGGGSESGYAQNGDLEDAELDDYSFSCYSQLEVNGSQHSLTCAFEDPDVNITNLEFEICGALVEVKCLNFRKLQEIYFIETKKFLLIGKSNICVKVGEKSLTCKKIDLTTIVKPEAPFDLSVVYREGANDFVVTFNTSHLQKKYVKVLMHDVAYRQEKDENKWTHVNLSSTKLTLLQRKLQPAAMYEIKVRSIPDHYFKGFWSEWSPSYYFRTPEINNSSGEMDGGSGGSGGSGGSGGSGGSGGSGGSGGSGGSGGSGGSGGSGGSGGSGGSGGSGGSGGSGGSGAAEGVQIQIIYFNLETVQVTWNASKYSRTNLTFHYRFNGDEAYDQCTNYLLQEGHTSGCLLDAEQRDDILYFSIRNGTHPVFTASRWMVYYLKPSSPKHVRFSWHQDAVTVTCSDLSYGDLLYEVQYRSPFDTEWQSKQENTCNVTIEGLDAEKCYSFWVRVKAMEDVYGPDTYPSDWSEVTCWQRGEIRDACAETPTPPKPKLSK
light chain: DIQMTQSPSTLSASVGDRVTITCKCQLSVGYMHWYQQKPGKAPKLLIYDTSKLASGVPSRFSGSGSGTAFTLTISSLQPDDFATYYCFQGSGYPFTFGGGTKLEIKRTVAAPSVFIFPPSDEQLKSGTASVVCLLNNFYPREAKVQWKVDNALQSGNSQESVTEQDSKDSTYSLSSTLTLSKADYEKHKVYACEVTHQGLSSPVTKSFNRGEC
notes: Monospecific TSLP-TRAP complex on palivizumab (human IgG4 S228P, YTE)
As for B1, the binding result was “no binding”.

The values are drawn from patent US20260139033A1 (PRANA THERAPIES, published 2026).
